Laboratory results reported in publication PMC10604874.

Protein sequences, listed by entry. Tags and fused reporters are not part of them. Lines headed by an entry give the natural chain unless they say otherwise; changes in a name come on top.
UniProt A0A7L7YYC3: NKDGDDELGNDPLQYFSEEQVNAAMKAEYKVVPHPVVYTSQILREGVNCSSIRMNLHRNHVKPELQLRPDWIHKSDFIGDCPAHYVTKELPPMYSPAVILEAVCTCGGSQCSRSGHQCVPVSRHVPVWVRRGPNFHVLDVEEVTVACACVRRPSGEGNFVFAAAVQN
UniProt A0A7L7YY96: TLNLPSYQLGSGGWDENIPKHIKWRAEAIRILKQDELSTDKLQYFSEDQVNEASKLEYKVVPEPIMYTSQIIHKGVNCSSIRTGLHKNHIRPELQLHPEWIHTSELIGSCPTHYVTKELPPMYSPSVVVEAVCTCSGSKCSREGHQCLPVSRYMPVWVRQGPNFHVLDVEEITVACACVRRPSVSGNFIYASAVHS

Biological target: recombinant protein of the Lvit-IL-17R extracellular domain (Lysmata vittata)
Test: pull-down; GST-tagged rIL-17R or GST on Glutathione Sepharose 4B; rCFSH1a/rCFSH1b added, 4 °C for 1 h; washed with 10 mM PBS pH 7.4; eluted with 50 mM Tris-Cl, 10 mM reduced glutathione, pH 8.0; SDS-PAGE and Western blot with anti-His antibody; both purified

Substance | binding
Lvit-CFSH1a recombinant protein (crustacean female sex hormone 1a of Lysmata vittata) (from UniProt A0A7L7YYC3) (ligand) | binds
Lvit-CFSH1b recombinant protein (crustacean female sex hormone 1b of Lysmata vittata) (from UniProt A0A7L7YY96) (ligand) | binds

These are yes or no findings as the source states them, for the method shown. A result given as binding can be weak or reduced; the word gives no strength.
